Data published in PubChem BioAssay AID540256 (National Center for Advancing Translational Sciences (NCATS), 2011).
“And” between values parts separate entries of the source, which are not always exact repeats. Equal values may be shown once. Among all 300,000 compounds or so, about 3,700 (1.2%) were called active. This list was built around the results that the source calls inconclusive (neither active nor inactive); the mix of calls is not that of the screen. The call rests on the fitted dose curve; tested in HEK293 cells. A potency beside an inconclusive call is a rough fit, not a confirmed value.

Experiment: qHTS for Inhibitors of binding or entry into cells for Lassa Virus; further: nearly all actives have a fitted effect of over 50% in size
Details: Lassa virus pseudotype entry inhibition, cell reporter; activity change, negative = inhibition: at 37.9 µM (top of the series) unless noted
On the % scale 0 is the no-effect control and ±100 the full control effect; potency means the concentration at half of the fitted maximal effect.

| SMILES | activity change, negative = inhibition | Potency |
| --- | --- | --- |
| CCOc1ccc(C(=O)C2CCN(C(=O)c3ccccc3C(=O)O)CC2)cc1 | inactive: -5.37% | – |
| CC(C)(C)N(Cc1ccc2c(c1)OCO2)C(=O)/C=C\S(=O)c1ccccc1 (stereo not drawn) | – | inconclusive: 17.8 µM [inhibitor, partial curve, poor fit] |
| CSc1nn(CC(=O)Nc2cc(C)ccc2C)c(N)c1S(=O)(=O)c1ccccc1 | – | inconclusive: 35.5 µM [inhibitor, single point] |
| CN=c1nc(-c2ccccc2)n(-c2ccccc2)s1 | – | active: 23.1 µM |
| CC(C)Cc1[nH]c(=O)c(C#N)c2c1CCC2 | – | inconclusive: 0.355 µM [inhibitor, single point] |
| CCOC(=O)N1CCN(C(=O)CN(Cc2ccc(Cl)cc2)S(C)(=O)=O)CC1 | inactive: -12% | – |
| COC(=O)C(NNc1ccccc1)(NC(=O)c1cccc(F)c1)C(F)(F)F (stereo not drawn) | – | inconclusive: 23.1 µM [activator, partial curve, poor fit] |
| O=C(Nc1ccc(F)cc1)Nn1cnnc1 | – | inconclusive: 7.08 µM [activator, partial curve] |
| CC(NCc1ccc(Cl)c(Cl)c1)C(O)c1ccccc1 (stereo not drawn) | inactive: 24.5% | – |
| C/C=C(\C)c1nnc(NC(=O)c2ccco2)s1 | – | inconclusive: 1.41 µM [activator, full curve, poor fit] |
| O=C(Cn1cc(C(=O)c2cccs2)c2ccccc21)Nc1ccc(Br)cc1 | inactive: 15.4% [at 46.1 µM] | – |
| O=C1CCSC2(C(=O)N(Cc3ccc(F)cc3)c3ccccc32)N1c1cccc(F)c1 (stereo not drawn) | – | inconclusive: 6.31 µM [inhibitor, partial curve, poor fit] |
| O=C(NC(=S)Nc1ccc2c(c1)C(=O)c1ccccc1C2=O)c1ccc(F)cc1 | – | inconclusive: 1.64 µM [activator, partial curve, poor fit] |
| O=C(NCCc1nc2ccccc2[nH]1)/C(=C/c1ccc2c(c1)OCO2)NC(=O)c1ccccc1 | inactive: 15.1% | – |
| CCN(CC)S(=O)(=O)c1ccc(C(=O)Nc2cc(C)on2)cc1 | – | inconclusive: 11.2 µM [inhibitor, partial curve, poor fit] |
| CCCS(=O)(=O)N1CCCC(C(=O)N2CCCCC2)C1 (stereo not drawn) | inconclusive: 38.7% [activator] [at 46.1 µM] | – |
| CSc1cccc(NC(=S)N(CCC(C)C)C2CCN(C(C)=O)CC2)c1 | – | inconclusive: 3.16 µM [inhibitor, partial curve, poor fit] |
| COc1ccc(/C(N)=N/OC(=O)c2cc(-c3ccccc3)nc3ccccc23)cc1 | inactive: -5.19% | – |
| O=C(NCc1cccc(Cl)c1)c1ccc2c(c1)OCO2 | inactive: 16% [at 14.3 µM] | – |
| CCC(Sc1nc(=O)cc(N)n1CCc1ccccc1)C(=O)Nc1ccccc1C#N (stereo not drawn) | – | inconclusive: 0.708 µM [activator, full curve, poor fit] |
| C[C@@H](C(=O)Nc1nc2ccc(F)cc2s1)N1C(=O)C2CC=CCC2C1=O (stereo partly drawn) | – | inconclusive: 1.41 µM [activator, partial curve, poor fit] |
| COC(=O)c1c(C)sc(-c2c(-c3ccc(OC)c(F)c3)[nH]c3c2c(=O)n(C)c(=O)n3C)c1O | – | inconclusive: 1.12 µM [activator, full curve, poor fit] |
| COC(=O)c1sc2nc(SCc3cccc(Cl)c3)n(N)c(=O)c2c1C | – | inconclusive: 3.55 µM [inhibitor, partial curve, poor fit] |

| SMILES | activity change, negative = inhibition | Potency |
| --- | --- | --- |
| CN(CC(=O)Nc1cccc(S(=O)(=O)N(C)C)c1)Cc1ccccc1 | inactive: 8.61% [at 46.1 µM] | – |
| Cc1cccc(N2CCN(C(=O)c3ccccc3NC(=O)C3CCCCC3C(=O)O)CC2)c1 (stereo not drawn) | – | inconclusive: 7.31 µM [inhibitor, single point] |
| CCN(CC)S(=O)(=O)c1ccc2c(c1)nc(SCC(=O)N1CCOCC1)n2-c1ccccc1OC | inactive: -26.1% | – |
| CCc1ccccc1NC(=O)Cn1ccn(Cc2ccccc2)c(=O)c1=O | – | inconclusive: 20 µM [inhibitor, single point] |
| CCc1ccc(N(CC)c2ncnc3nc[nH]c23)cc1 | – | inconclusive: 25.9 µM [inhibitor, single point] |
| Cn1c(CSCc2ccccc2)nnc1SCC(=O)Nc1ccc(C(=O)O)cc1 | – | inconclusive: 35.5 µM [activator, single point] |
| CCc1cccc(NC(=O)NC2CCCCC2)c1 | – | inconclusive: 2.06 µM [inhibitor, full curve, poor fit] |
| CN(C1CC(C)(C)N(O)C(C)(C)C1)S(=O)(=O)CC12CCC(CC1=O)C2(C)C (stereo not drawn) | inconclusive: 11.7% [activator] | – |
| CCOc1ccccc1N1CCN(C(=O)c2ccccc2)CC1 | inactive: 11% | – |
| CCN(CC)S(=O)(=O)c1cc(C(=O)Nc2cc(C)on2)c(Cl)cc1Cl | – | inconclusive: 0.447 µM [inhibitor, single point] |
| CCc1nnc(NS(=O)(=O)c2ccc(N=Cc3c(C)[nH]n(-c4ccc(C)c(C)c4)c3=O)cc2)s1 | inactive: 8.3% | – |
| Cc1cccc(OCC(=O)OCC(=O)c2c(N)n(C)c(=O)n(C)c2=O)c1C | – | inconclusive: 35.5 µM [activator, single point] |
| CC(CC(=O)N1CCN(C(=O)c2ccccc2)CC1)c1ccccc1 (stereo not drawn) | inactive: 29.1% | – |
| O=C(COC(=O)c1ccc(S(=O)(=O)N2CCCC2)cc1)Nc1ccccc1 | inactive: 0.626% | – |
| CCN(CC)S(=O)(=O)c1ccc(OCC(=O)NCc2ccco2)cc1 | inactive: -25.2% | – |
| CC(=O)Nc1ccccc1N(CC(O)Cn1c2ccccc2c2ccccc21)S(=O)(=O)c1ccc(C)cc1 (stereo not drawn) | – | inconclusive: 12.6 µM [inhibitor, partial curve] |
| COc1ccc(NC(=O)c2ccco2)cc1NC(=O)c1c(OC)cccc1OC | – | inactive and inconclusive: 116 nM [activator, full curve, poor fit] |
| C=CCN(c1ccccc1)S(=O)(=O)c1cccc(C(=O)NCc2ccncc2)c1 | inactive: -10.3% | – |
| CNc1ccc(Br)cc(C(=O)/C=C/c2cccc(OC)c2OC)c1=O | inactive: -21% | – |
| CCN(CC)c1ccc(/C=N/NC(=S)NCc2ccco2)cc1 | – | active: 2.06 µM |
| COC(=O)c1ccc(C(=O)OC)c(NC(=O)CS(=O)(=O)Cc2ccccc2)c1 | inactive: -1.43% | – |
| Cc1cc(N)n2ncc(-c3ccccc3)c2n1 | inactive: -18.6% | – |
| COc1ccc(CCNC(=O)c2ccc3c(c2)ncn3-c2ccc(C(C)C)cc2)cc1OC | – | inconclusive: 7.94 µM [inhibitor, partial curve, poor fit] |

| SMILES | activity change, negative = inhibition | Potency |
| --- | --- | --- |
| Cc1ccc(-c2csc(NC(=S)NC(=O)/C=C/c3ccco3)n2)cc1 | – | inconclusive: 5.8 µM [inhibitor, full curve, poor fit] |
| CC(NC1CCCCC1)C(=O)NN=C(c1ccccc1)c1ccccc1 (stereo not drawn) | – | inconclusive: 35.5 µM [inhibitor, single point] |
| O=C(c1ccc(Cl)c(Cl)c1)N1CCC(=O)N(C(COCc2ccc(Cl)cc2)Cc2ccccc2)CC1 (stereo not drawn) | – | inconclusive: 20.6 µM [inhibitor, single point] |
| CC(=O)c1ccc(N2CCN(C(=O)Nc3ccc(C(C)C)cc3)CC2)cc1 | – | inconclusive: 14.1 µM [inhibitor, single point] |
| COC(=O)CNC(c1ccccc1)c1cc(Br)ccc1NS(=O)(=O)c1ccccc1 (stereo not drawn) | – | inconclusive: 14.6 µM [inhibitor, partial curve, poor fit] |
| O=C(CSC(=S)N1CCCC1)NCCc1ccccc1 | – | inconclusive: 2.51 µM [activator, partial curve, poor fit] |
| COc1ccc(Oc2ncc(CN3CCN(c4ccccc4)CC3)s2)cc1 | – | inconclusive: 15.8 µM [inhibitor, single point] |
| Cc1cc(C(=O)CSc2nncn2C)c(C)n1-c1ccccc1 | – | inconclusive: 5.62 µM [inhibitor, full curve, poor fit] |
| CC(=O)Nc1c(C)nn(-c2ccccc2)c1N1CCC(C(=O)Nc2ccccc2F)CC1 | inactive: -22.8% [at 46.1 µM] | – |
| O=C(COc1ccc(-n2cnnn2)cc1)Nc1ccc(F)c(Cl)c1 | inactive: 7.51% [at 46.1 µM] | – |
| Cc1cc(NC(=O)COC(=O)c2n[nH]c3ccccc23)no1 | inactive: 1.36% | – |
| CCN(CC(=O)NCc1ccc(F)cc1)C(=O)C1CC1C (stereo not drawn) | – | inconclusive: 0.631 µM [inhibitor, full curve, poor fit] |
| CC(=O)Nc1ccc(C(=O)OCc2ccc(Br)cc2)cc1 | – | inconclusive: 35.5 µM [inhibitor, single point] |
| CCOc1ccc(C(C(=O)NCC2CCCO2)N(C(=O)c2snc(C(N)=O)c2N)c2ccccc2F)cc1 (stereo not drawn) | – | active: 7.08 µM |
| CCOC(=O)c1[nH]c(C)c(/C(O)=C2\C(=O)C(=O)N(CCN3CCOCC3)C2c2cccs2)c1C (stereo not drawn) | – | inconclusive: 5.8 µM [inhibitor, full curve, poor fit] |
| Cc1ccc(NC(=O)CN(C)C(=O)Cn2ncc(Cl)c(Cl)c2=O)cc1 | – | active: 15.8 µM |
| COc1cc(/C=N\NC(=O)c2cccc(Cl)c2)ccc1Oc1ccc([N+](=O)[O-])cn1 | inactive: -28.4% | – |
| C#CCOc1ccccc1/C=C1/C(=O)ON=C1C | – | inconclusive: 35.5 µM [activator, partial curve, poor fit] |
| Cc1ccc(C)c(OCCC(=O)OCC(=O)NCCc2ccc(S(N)(=O)=O)cc2)c1 | inactive: -0.875% | – |
| Cc1ccc(C)c(NC(=O)C2CCN(c3cc(C)nc4c(-c5ccc(Cl)cc5)c(C)nn34)CC2)c1 | – | inconclusive: 12.6 µM [activator, single point] |
| O=C(CCCc1c[nH]c2ccccc12)Nc1ccc2ccccc2c1 | – | inconclusive: 11.2 µM [inhibitor, partial curve, poor fit] |
| COC(=O)c1ccc(Nc2c([N+](=O)[O-])c(=O)oc3ccccc23)cc1 | – | inconclusive: 35.5 µM [inhibitor, partial curve, poor fit] |
